Measurements reported in US20160032401A1, “Glycine, Mitochondrial One-Carbon Metabolism, and Cancer” (THE GENERAL HOSPITAL CORPORATION, priority 2013, published 2016).
Changes are numbered by the printed parent chain. Read-outs that look alike come from different tables or passages of the source. For at least one compound, name, drawing or mass did not settle the structure.

Columns and labels:
Assay type in all cases: biochemical
[1] = biological target: T1, MTHFD2 C166S mutant (Homo sapiens, UniProt P13995, C166S); test: Same activity assay on MTHFD2 C166 cysteine to serine mutant
T1 construct: 12 amino acids were removed from the unstructured C-terminus of the protein, and a 6-histidine tag added to facilitate purification; 6-histidine tag (C); made in house
T1 sequence (P13995 with tags, fused parts or gaps C166S): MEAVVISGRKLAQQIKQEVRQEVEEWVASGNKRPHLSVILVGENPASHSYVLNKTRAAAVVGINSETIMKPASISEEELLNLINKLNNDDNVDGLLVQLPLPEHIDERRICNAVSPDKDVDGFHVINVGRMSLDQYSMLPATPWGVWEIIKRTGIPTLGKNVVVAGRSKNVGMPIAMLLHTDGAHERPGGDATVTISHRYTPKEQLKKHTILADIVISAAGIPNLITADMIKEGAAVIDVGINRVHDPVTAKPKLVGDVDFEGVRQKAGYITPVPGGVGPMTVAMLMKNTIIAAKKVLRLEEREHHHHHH
Procedure: (§1) The NAD-dependent methylenetetrahydrofolate dehydrogenase/cyclohydrolase activity assay employed in this microtiter well based screen is based on previously published enzymatic assays, with modifications as listed below. The assay was initially reported by Scrimgeour and Huennekens, Biochem. Biophys. Res. Commun. 1960, 2:230-233 and subsequently by Mejia and MacKenzie, The Journal of biological chemistry. 1985; 260:14616-14620). The assay was performed as described with slight modifications (reported assay concentrations in the Mejia et al. assay are provided in brackets below). The modified assay utilized 50 ng of recombinant MTHFD2 protein produced as described in Example 11 per well in 384 well format. In addition, the present assay utilized 30 […], at pH 7.5 (7.3), with 150 uM formaldehyde (2.5 mM), 150 uM tetrahydrofolate (250 uM) and 6 mM MgCl (5 mM). No 2-mercaptoethanol or reducing agents were used in the present assay, which is crucial for detection of cysteine modifying compounds as potential enzyme inhibitors. The assay employed for high-throughput screening for chemical inhibitors used the final endpoint measure of formation of 5,10-methenyltetrahydrofolate by spectrophotometric absorbance at 340 nm. […]

[2] = biological target: T2, MTHFD2 C145S mutant (Homo sapiens, UniProt P13995, C145S); test: Same activity assay on MTHFD2 C145 cysteine to serine mutant
T2 construct: 12 amino acids were removed from the unstructured C-terminus of the protein, and a 6-histidine tag added to facilitate purification; 6-histidine tag (C); made in house
T2 sequence (P13995 with tags, fused parts or gaps C145S): T1 sequence (P13995 with tags, fused parts or gaps C166S) with C111S, S132C
Procedure: as §1

[3] = biological target: T3, recombinant MTHFD2 protein (human, wild type) (Homo sapiens, UniProt P13995); test: NAD-dependent methylenetetrahydrofolate dehydrogenase/cyclohydrolase activity assay, 384 well, no reducing agents
T3 construct: 12 amino acids were removed from the unstructured C-terminus of the protein, and a 6-histidine tag added to facilitate purification; 6-histidine tag (C); made in house; host or cells: E. coli One Shot BL21 Star (DE3), pET-30a(+)
T3 sequence (P13995 with tags, fused parts or gaps): T1 sequence (P13995 with tags, fused parts or gaps C166S) with S132C
Procedure: as §1

[4] = biological target: T4, MTHFD2 C145S/C166S mutant (Homo sapiens, UniProt P13995, C145S/C166S); test: Same activity assay on MTHFD2 C145/C166 double mutant
T4 construct: 12 amino acids were removed from the unstructured C-terminus of the protein, and a 6-histidine tag added to facilitate purification; 6-histidine tag (C); made in house
T4 sequence (P13995 with tags, fused parts or gaps C145S/C166S): T1 sequence (P13995 with tags, fused parts or gaps C166S) with C111S
Procedure: as §1

SMILES: CC1=C(O)C(=O)C=C2C1=CC=C1[C@@]2(C)CC[C@@]2(C)[C@@H]3C[C@](C)(C(=O)O)CC[C@]3(C)CC[C@]12C [celastrol]
- inhibition of C166 mutant MTHFD2 [1]: partial inhibition
- inhibition of C145 mutant MTHFD2 [2]: resistant to inhibition
- inhibition of C145 mutant MTHFD2 ([2]; listed as celestrol): partial inhibition
- inhibition of wild type MTHFD2 with addition of the reducing agent DTT ([3]; plus DTT): loss of inhibition
- inhibition of MTHFD2 enzyme in high throughput screen ([3]; screen of about 5,100 small molecules, biological duplicate, no reducing agents): inhibit the enzyme
- inhibition of C145/C166 double mutant MTHFD2 [4]: loss of inhibition
